Experimental data published in patent EP4578449A1, “PHARMACEUTICAL COMBINATION OF FAK INHIBITOR AND MICROTUBULE INHIBITOR AND USE THEREOF” (Inxmed (Nanjing) Co., Ltd., priority 2022, dated 2024).
At least one structure is not confirmed: it was looked up by name or label, or the drawing left a doubt.

Assays:
[1] = system: mouse colon cancer CT26 cells; assay: Docetaxel/Eribulin/Paclitaxel and Defactinib: microscopy and CRT/Annexin-V/PI flow cytometry; assay type: cell-based; conditions: 48 hours, Defactinib 5 µM, Docetaxel 0.3 µM, Eribulin 0.3 µM, Paclitaxel 6 µM, alone or combined with Defactinib
Method: CT26 cells were cultured in monolayer in vitro under the following conditions: RPMI-1640 medium with 10% fetal bovine serum, 37°C, 5% CO2. Trypsin was used for routine digestion and passage treatment two to three times a week. When the cells were in the exponential growth phase and the adherent confluence reached 80%-90%, the cells were harvested and plated.
(§1) CT26 cells were digested with trypsin, and then the cells were collected and counted. Based on the counting results, the cells were diluted with the corresponding complete culture medium to a concentration of 50,000 cells per milliliter. Then the cells were plated in 12-well cell culture plates, with 2 ml of cell suspension per well, i.e., 100,000 cells.
(§2) After plating, the cells were cultured in a 37°C and 5% CO2 incubator.
After 24 hours of plating, the test compounds Docetaxel, Eribulin, Paclitaxel and Defactinib were added to different wells, respectively.
(§3) After 48 hours of drug action, the cells were photographed using a microscope, and then trypsinized and collected for flow cytometry staining.
(§4) The cells were washed twice with flow buffer (DPBS + 2% FBS). 0.5 µL of AF647 Anti-Calreticulin Antibody was added to each well, and mixed well. The cells were incubated at 4°C in the dark for 20 min. […]
(§5) After the assay, the cell positive rate was analyzed by Flowjo (V10) software.

[2] = system: mouse breast cancer 4T1 cells; assay: Docetaxel/Eribulin and Defactinib: microscopy and CRT/Annexin-V/PI flow cytometry; assay type: cell-based; conditions: 48 hours, Defactinib 5 µM, Docetaxel 0.3 µM, Eribulin 0.1 µM, alone or combined with Defactinib
Method: 4T1 cells were cultured in a monolayer in vitro in RPMI-1640 medium with 10% fetal bovine serum in a 37 °C, 5% CO2 incubator. Trypsin was used for routine digestion and passage treatment two to three times a week. When the cells were in the exponential growth phase and the adherent confluence reached 80%-90%, the cells were harvested and plated.
as §1, with “4T1” for “CT26”
as §2
After 24 hours of plating, the test compounds Defactinib, Docetaxel and Eribulin were added to different wells, respectively.
as §3, §4, §5

CNC(=O)c1ccc(Nc2ncc(C(F)(F)F)c(NCc3nccnc3N(C)S(C)(=O)=O)n2)cc1 [Defactinib]
cell status (cell death) under a microscope [1]: more significant
cell status (cell death) under a microscope [2]: more significant
